Data set [1] can be described thus: Kinematic viscosity of lactone compatibilizers. The format is physicochemical. The settings on record: at 40° C.
Data set [2] relates to New Zealand White rabbits. Briefly: Acute skin irritation/corrosive potential, scored on the Draize scale. The format is in vivo. The following applies: 0.5 mL undiluted, approximately 4 hours exposure, semi-occlusive, evaluated up to 72 hours. On the procedure: Compositions of the present invention were evaluated for acute skin irritation/corrosive potential in New Zealand White rabbits. An aliquot of 0.5 mL of undiluted compatibilizer was administered to a localized site on the backs of the animals. The test sites were covered with a semi-oclusive dressing to ensure contact between the skin and the test substance. The animals were exposed to the test substances for approximately 4 hours. The test sites were evaluated for erythrema, edema, and other evidence of dermal effects for up to 72 hours following the removal of the test substance. Observed dermal effects were scored according to the Draize scale. The reversibility of dermal effects was assessed for up to 14 days, as necessary.

Data set [3] in a line: Phase separation temperature of compatibilizer / Zerol 150 alkylbenzene oil / R134a mixtures (cloud point on cooling). The format is physicochemical. On the procedure: The phase separation temperatures for lactone compatibilizers of the present invention when combined with Zerol® 150 alkylbenzene oil were determined. […] The glass tube was sealed at one end, and the other end was sealed to a Teflon® vacuum valve stopcock. This entire apparatus was tared, and was attached at valve E to a high vacuum line capable of achieving 10^−4 to 10^−5 torr (See FIG. 1). The pressure was measured by a mercury manometer, F. All five valves, A, B, C, D and E were attached to the manifold via greased ground-glass joints. Valve A joined the manifold to the source of refrigerant. Valve B joined a flask comprising fluorocarbon refrigerant, once loaded into the manifold. Valve C joined a 125.5 mL calibrated vessel to the manifold. And valve D joined a 5 mm OD in leg glass tube 150 mm in length containing oil and compatibilizer.
The glass tube, refrigerant container, and calibrated volume were evacuated by opening valve B, C, D, and E, and keeping valve A closed. After vacuum was achieved, Valve D and E were closed. […]
The phase separation temperature of the mixture was determined by manually shaking the contents of the glass tube while cooling the mixture by one degree Centigrade intervals until a cloudpoint/phase separation was visually observed. […]

SMILES strings stand for the structures.

The values that follow come from US20050127321A1, “Compositions containing lactone compatibilizers” (priority 2003, published 2005).

`CCCCCCCC1CCC(=O)O1` (stereo not drawn) [gamma-undecalactone] registered a kinematic viscosity in data set [1] of 5.4 centistokes. In data set [2], the Classification entry is reported as “Not a skin irritant”. In addition, the “Phase Separation Temperature” value in data set [3] is −6 deg C.
